Paper doi:10.64898/2025.12.23.696152 (bioRxiv, 2025)
These are yes or no findings as the source states them, for the method shown. Some binding calls cover weakened binding; strength is not graded here. Where a sequence is shown, tags or fusion partners need not be part of it.

Biological target: T1, KIF5A-mScarlet-Strep-tag II (human KIF5A, full length) (human), Q12840
T1 chain: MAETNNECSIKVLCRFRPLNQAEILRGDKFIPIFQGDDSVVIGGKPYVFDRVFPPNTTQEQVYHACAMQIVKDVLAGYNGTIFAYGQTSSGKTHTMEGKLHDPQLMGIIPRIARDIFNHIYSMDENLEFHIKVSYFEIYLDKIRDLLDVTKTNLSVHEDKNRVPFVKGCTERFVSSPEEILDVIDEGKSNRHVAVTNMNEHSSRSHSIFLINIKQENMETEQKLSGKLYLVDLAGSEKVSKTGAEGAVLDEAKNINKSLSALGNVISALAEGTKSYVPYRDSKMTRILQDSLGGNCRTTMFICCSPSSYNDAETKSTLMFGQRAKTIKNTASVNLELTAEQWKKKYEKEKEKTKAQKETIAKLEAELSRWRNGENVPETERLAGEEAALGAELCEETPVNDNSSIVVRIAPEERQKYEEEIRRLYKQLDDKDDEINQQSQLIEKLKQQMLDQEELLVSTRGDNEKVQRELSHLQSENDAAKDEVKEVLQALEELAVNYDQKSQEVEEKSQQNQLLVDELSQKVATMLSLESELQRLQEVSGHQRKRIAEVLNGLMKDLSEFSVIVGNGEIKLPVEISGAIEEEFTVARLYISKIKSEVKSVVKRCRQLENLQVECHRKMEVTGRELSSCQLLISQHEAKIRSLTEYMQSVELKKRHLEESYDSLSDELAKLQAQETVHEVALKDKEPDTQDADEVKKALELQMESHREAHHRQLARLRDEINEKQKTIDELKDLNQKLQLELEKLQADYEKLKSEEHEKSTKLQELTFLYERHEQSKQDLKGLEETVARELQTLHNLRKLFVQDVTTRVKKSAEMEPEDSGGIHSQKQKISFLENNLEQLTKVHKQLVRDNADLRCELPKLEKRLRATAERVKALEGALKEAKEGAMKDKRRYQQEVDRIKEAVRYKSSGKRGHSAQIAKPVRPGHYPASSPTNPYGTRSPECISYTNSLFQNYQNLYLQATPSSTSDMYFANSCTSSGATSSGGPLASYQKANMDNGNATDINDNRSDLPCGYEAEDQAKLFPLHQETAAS
Assay: SEC
Details: remark: other sources report otherwise

binding: binds
B1: KIF5A-mScarlet-Strep-tag II (human KIF5A, full length), Q12840 1-1032 (protein)
chain: T1 chain
